# Measurements from the supplement of paper PMC8728848.
# Some of the results follow.
# B1: SfaEH (Escherichia coli), Q1RDG5 (protein)
# chain: LLCRNNQTGQVFNSGDTSFRVNVSPVVQYDKSISVLDLSQLVSCQNEDSTGQNYDYLKILKGSGFSPALDTKTYGRLDFTSRPTGYARQLPLQFDLQVTEAFYQYGVWKPFPAKLYLYPAPGVFGKVINNGDLLATLYVNKFSTKGQEAGERNFTWRFYATNDVYIQTGTCRVSSNNVKVDLPSYPGGPVTVPLTVRCDQTQSVSYTLSGPVTGSGNTVFANTAASGSGGVGIQLSDNVGPVPAGQPRSLGQVGSSPVSLGLKASYALTGQASPTPGAVQSVINVTFSYN
# Tests used:
# Test in all cases: glycan array binding signal (z-score within array); higher = stronger binding
# Conditions in all cases: glycan notation: IUPAC condensed, linker removed
# [1] = molecular target: Fuc(a1-2)Gal(b1-4)GlcNAc(b1-3)Gal(b1-4)GlcNAc(b1-2)Man(a1-3)[Fuc(a1-2)Gal(b1-4)GlcNAc(b1-3)Gal(b1-4)GlcNAc(b1-2)Man(a1-6)]Man(b1-4)GlcNAc(b1-4)GlcNAc
# How it was run: (§1)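 Columns mapping to the same glycan were averaged after glycan names were converted to IUPAC-condensed notation. The data come from 3228 arrays in the Consortium for Functional Glycomics database, limited to those with an available protein sequence. Binding is reported as a within-array Z-score averaged across arrays of one protein sequence and across linkers.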
# [2] = molecular target: Fuc(a1-2)Gal(b1-4)GlcNAc(b1-3)Gal(b1-4)GlcNAc(b1-3)Gal(b1-4)GlcNAc
# How it was run: as §1
# [3] = molecular target: Fuc(a1-2)Gal(b1-4)GlcNAc(b1-3)GalNAc
# How it was run: as §1
# [4] = molecular target: Fuc(a1-2)Gal(b1-4)GlcNAc(b1-3)[Fuc(a1-2)Gal(b1-4)GlcNAc(b1-6)]GalNAc
# How it was run: as §1
# [5] = molecular target: Fuc(a1-2)Gal(b1-4)GlcNAc(b1-3)[Fuc(a1-3)[Gal(b1-4)]GlcNAc(b1-6)]Gal(b1-4)Glc
# How it was run: as §1
# [6] = molecular target: Fuc(a1-2)Gal(b1-4)GlcNAc(b1-6)GalNAc
# How it was run: as §1
# [7] = molecular target: Fuc(a1-2)Gal(b1-4)GlcNAc6S
# How it was run: as §1
# [8] = molecular target: Fuc(a1-2)Gal(b1-4)[Fuc(a1-3)]GlcNAc
# How it was run: as §1
# [9] = molecular target: Fuc(a1-2)Gal(b1-4)[Fuc(a1-3)]GlcNAc(b1-2)Man(a1-3)[Fuc(a1-2)Gal(b1-4)[Fuc(a1-3)]GlcNAc(b1-2)Man(a1-6)]Man(b1-4)GlcNAc(b1-4)[Fuc(a1-6)]GlcNAc
# How it was run: as §1
# [10] = molecular target: Fuc(a1-2)Gal(b1-4)[Fuc(a1-3)]GlcNAc(b1-2)[Fuc(a1-2)Gal(b1-4)[Fuc(a1-3)]GlcNAc(b1-4)]Man(a1-3)[Fuc(a1-2)Gal(b1-4)[Fuc(a1-3)]GlcNAc(b1-2)Man(a1-6)]Man(b1-4)GlcNAc(b1-4)GlcNAc
# How it was run: as §1
# [11] = molecular target: Fuc(a1-2)Gal(b1-4)[Fuc(a1-3)]GlcNAc(b1-3)Gal(b1-4)[Fuc(a1-3)]GlcNAc
# How it was run: as §1
# [12] = molecular target: Fuc(a1-2)Gal(b1-4)[Fuc(a1-3)]GlcNAc(b1-3)Gal(b1-4)[Fuc(a1-3)]GlcNAc(b1-3)Gal(b1-4)[Fuc(a1-3)]GlcNAc
# How it was run: as §1
# [13] = molecular target: Fuc(a1-2)Gal(b1-4)[Fuc(a1-3)]GlcNAc(b1-3)GalNAc
# How it was run: as §1
# [14] = molecular target: Fuc(a1-2)Gal(b1-4)[Fuc(a1-3)]GlcNAc(b1-3)[Neu5Ac(a2-6)Gal(b1-4)GlcNAc(b1-6)]Gal(b1-4)Glc
# How it was run: as §1
# [15] = molecular target: Fuc(a1-2)Gal3S(b1-4)GlcNAc
# How it was run: as §1
# [16] = molecular target: Fuc(a1-2)Gal6S(b1-3)GlcNAc
# How it was run: as §1
# [17] = molecular target: Fuc(a1-2)Gal6S(b1-3)GlcNAc6S
# How it was run: as §1
# Fuc(a1-2)Gal6S(b1-4)Glc = molecular target: Fuc(a1-2)Gal6S(b1-4)Glc
# How it was run: as §1
# [18] = molecular target: Fuc(a1-2)Gal6S(b1-4)Glc6S
# How it was run: as §1
# Fuc(a1-2)[Gal(a1-3)]Gal = molecular target: Fuc(a1-2)[Gal(a1-3)]Gal
# How it was run: as §1
# [19] = molecular target: Fuc(a1-2)[Gal(a1-3)]Gal(b1-3)GalNAc
# How it was run: as §1
# [20] = molecular target: Fuc(a1-2)[Gal(a1-3)]Gal(b1-3)GalNAc(b1-3)Gal(a1-4)Gal(b1-4)Glc
# How it was run: as §1
# [21] = molecular target: Fuc(a1-2)[Gal(a1-3)]Gal(b1-3)GlcNAc
# How it was run: as §1
# [22] = molecular target: Fuc(a1-2)[Gal(a1-3)]Gal(b1-3)GlcNAc(b1-2)Man(a1-3)[Fuc(a1-2)[Gal(a1-3)]Gal(b1-3)GlcNAc(b1-2)Man(a1-6)]Man(b1-4)GlcNAc(b1-4)GlcNAc
# How it was run: as §1
# [23] = molecular target: Fuc(a1-2)[Gal(a1-3)]Gal(b1-3)GlcNAc(b1-2)Man(a1-3)[Fuc(a1-2)[Gal(a1-3)]Gal(b1-3)GlcNAc(b1-2)Man(a1-6)]Man(b1-4)GlcNAc(b1-4)[Fuc(a1-6)]GlcNAc
# How it was run: as §1
# [24] = molecular target: Fuc(a1-2)[Gal(a1-3)]Gal(b1-3)GlcNAc(b1-3)GalNAc
# How it was run: as §1
# [25] = molecular target: Fuc(a1-2)[Gal(a1-3)]Gal(b1-3)GlcNAc(b1-6)GalNAc
# How it was run: as §1
# [26] = molecular target: Fuc(a1-2)[Gal(a1-3)]Gal(b1-4)Glc
# How it was run: as §1
# [27] = molecular target: Fuc(a1-2)[Gal(a1-3)]Gal(b1-4)GlcNAc
# How it was run: as §1
# [28] = molecular target: Fuc(a1-2)[Gal(a1-3)]Gal(b1-4)GlcNAc(b1-2)Man
# How it was run: as §1
# [29] = molecular target: Fuc(a1-2)[Gal(a1-3)]Gal(b1-4)GlcNAc(b1-2)Man(a1-3)[Fuc(a1-2)[Gal(a1-3)]Gal(b1-4)GlcNAc(b1-2)Man(a1-6)]Man(b1-4)GlcNAc(b1-4)GlcNAc
# How it was run: as §1
# [30] = molecular target: Fuc(a1-2)[Gal(a1-3)]Gal(b1-4)GlcNAc(b1-2)Man(a1-3)[Fuc(a1-2)[Gal(a1-3)]Gal(b1-4)GlcNAc(b1-2)Man(a1-6)]Man(b1-4)GlcNAc(b1-4)[Fuc(a1-6)]GlcNAc
# How it was run: as §1
# [31] = molecular target: Fuc(a1-2)[Gal(a1-3)]Gal(b1-4)GlcNAc(b1-3)GalNAc
# How it was run: as §1
# [32] = molecular target: Fuc(a1-2)[Gal(a1-3)]Gal(b1-4)GlcNAc(b1-6)GalNAc
# How it was run: as §1
# [33] = molecular target: Fuc(a1-2)[Gal(a1-3)]Gal(b1-4)[Fuc(a1-3)]Glc
# How it was run: as §1
# [34] = molecular target: Fuc(a1-2)[Gal(a1-3)]Gal(b1-4)[Fuc(a1-3)]GlcNAc
# How it was run: as §1
# [35] = molecular target: Fuc(a1-2)[Gal(a1-3)]Gal(b1-4)[Fuc(a1-3)]GlcNAc(b1-3)GalNAc
# How it was run: as §1
binder,measurement,setting,value
B1,glycan array binding signal (z-score),[1],0.326
same,glycan array binding signal (z-score),[2],-0.132
same,glycan array binding signal (z-score),[3],-0.983
same,glycan array binding signal (z-score),[4],-0.363
same,glycan array binding signal (z-score),[5],-0.708
same,glycan array binding signal (z-score),[6],0.53
same,glycan array binding signal (z-score),[7],-0.418
same,glycan array binding signal (z-score),[8],0.078
same,glycan array binding signal (z-score),[9],0.614
same,glycan array binding signal (z-score),[10],-0.498
same,glycan array binding signal (z-score),[11],-0.11
same,glycan array binding signal (z-score),[12],1.77
same,glycan array binding signal (z-score),[13],0.063
same,glycan array binding signal (z-score),[14],-0.301
same,glycan array binding signal (z-score),[15],-0.695
same,glycan array binding signal (z-score),[16],-1.04
same,glycan array binding signal (z-score),[17],-0.731
same,glycan array binding signal (z-score),Fuc(a1-2)Gal6S(b1-4)Glc,-0.887
same,glycan array binding signal (z-score),[18],0.747
same,glycan array binding signal (z-score),Fuc(a1-2)[Gal(a1-3)]Gal,0.472
same,glycan array binding signal (z-score),[19],-0.075
same,glycan array binding signal (z-score),[20],-1.07
same,glycan array binding signal (z-score),[21],0.11
same,glycan array binding signal (z-score),[22],-0.134
same,glycan array binding signal (z-score),[23],-0.025
same,glycan array binding signal (z-score),[24],0.137
same,glycan array binding signal (z-score),[25],0.279
same,glycan array binding signal (z-score),[26],0.531
same,glycan array binding signal (z-score),[27],0.616
same,glycan array binding signal (z-score),[28],-0.41
same,glycan array binding signal (z-score),[29],-0.531
same,glycan array binding signal (z-score),[30],-0.355
same,glycan array binding signal (z-score),[31],-0.416
same,glycan array binding signal (z-score),[32],0.217
same,glycan array binding signal (z-score),[33],-0.344
same,glycan array binding signal (z-score),[34],0.283
same,glycan array binding signal (z-score),[35],0.707

# 2 records picked at random from the list so far:
binder,measurement,setting,value
B1,glycan array binding signal (z-score),[11],-0.11
same,glycan array binding signal (z-score),[13],0.063
